This is one part of the list.
Experiments:
Assay in all cases: log2 fold change, soluble protein after heating vs DMSO (PISA); higher = thermal stabilisation; K562 cells, 10 uM, 30 min; active = over 0.2 and 3.5 SD of the protein, either way, in both replicates (recomputed)
saracatinib = compound: CN1CCN(CCOc2cc(OC3CCOCC3)c3c(Nc4c(Cl)ccc5c4OCO5)ncnc3c2)CC1 [saracatinib]
Summary of the method: (§1)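 Aliquots of K562 cells (2×10^6 cells/mL) treated with 10 μM compound for 30 min were heated for 3 min over 48°C-58°C. After pooling and extraction in PBS with 0.5% NP-40 at 4°C, soluble protein from a 21,000xg, 90 min spin was quantified by TMTpro 16plex LC-MS/MS with channel sums equalised. Thermal stability is expressed against control samples, from duplicates, as a log2 fold change.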

Amino acid sequences for entries named in this document (tags omitted). A change or cut given only in a name is not applied to a line headed by its entry.
UniProt O00461: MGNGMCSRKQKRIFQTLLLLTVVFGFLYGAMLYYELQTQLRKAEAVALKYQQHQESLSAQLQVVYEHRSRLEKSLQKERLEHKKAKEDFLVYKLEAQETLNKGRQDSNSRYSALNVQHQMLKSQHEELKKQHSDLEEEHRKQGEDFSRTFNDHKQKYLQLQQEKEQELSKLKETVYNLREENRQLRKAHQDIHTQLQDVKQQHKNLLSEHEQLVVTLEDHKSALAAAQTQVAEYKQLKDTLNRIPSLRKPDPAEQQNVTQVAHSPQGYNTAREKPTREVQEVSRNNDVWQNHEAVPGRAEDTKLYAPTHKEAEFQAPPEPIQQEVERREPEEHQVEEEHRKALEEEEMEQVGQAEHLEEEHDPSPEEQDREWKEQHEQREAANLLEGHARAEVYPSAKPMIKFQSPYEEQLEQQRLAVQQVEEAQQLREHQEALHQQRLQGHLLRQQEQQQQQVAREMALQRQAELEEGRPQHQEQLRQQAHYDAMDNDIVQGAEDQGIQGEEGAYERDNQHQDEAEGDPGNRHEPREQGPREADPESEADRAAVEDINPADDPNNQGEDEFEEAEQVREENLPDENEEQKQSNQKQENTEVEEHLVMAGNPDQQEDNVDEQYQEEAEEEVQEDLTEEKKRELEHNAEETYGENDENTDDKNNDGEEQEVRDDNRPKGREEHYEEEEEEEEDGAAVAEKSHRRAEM
UniProt Q9HCN4, whole entry, looked up: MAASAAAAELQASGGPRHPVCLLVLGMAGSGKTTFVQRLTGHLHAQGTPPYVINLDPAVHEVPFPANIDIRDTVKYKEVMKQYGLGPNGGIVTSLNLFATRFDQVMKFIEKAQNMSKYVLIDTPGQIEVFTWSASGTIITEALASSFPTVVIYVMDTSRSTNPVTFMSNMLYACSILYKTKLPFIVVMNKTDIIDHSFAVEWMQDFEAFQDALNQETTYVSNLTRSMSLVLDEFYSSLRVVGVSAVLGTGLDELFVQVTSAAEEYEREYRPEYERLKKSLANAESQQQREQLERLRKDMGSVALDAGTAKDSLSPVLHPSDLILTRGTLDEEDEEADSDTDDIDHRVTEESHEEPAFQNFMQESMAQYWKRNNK
UniProt Q14691: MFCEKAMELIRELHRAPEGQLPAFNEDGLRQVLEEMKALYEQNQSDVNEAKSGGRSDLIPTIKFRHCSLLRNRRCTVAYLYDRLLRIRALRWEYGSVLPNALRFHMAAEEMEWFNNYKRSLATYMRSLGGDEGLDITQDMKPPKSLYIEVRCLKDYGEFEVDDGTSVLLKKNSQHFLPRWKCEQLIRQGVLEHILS
UniProt P60983, whole entry, looked up: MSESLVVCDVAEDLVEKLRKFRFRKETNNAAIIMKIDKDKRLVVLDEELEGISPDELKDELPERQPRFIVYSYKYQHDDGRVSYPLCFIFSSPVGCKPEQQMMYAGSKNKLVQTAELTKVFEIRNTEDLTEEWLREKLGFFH
UniProt Q9P2T1: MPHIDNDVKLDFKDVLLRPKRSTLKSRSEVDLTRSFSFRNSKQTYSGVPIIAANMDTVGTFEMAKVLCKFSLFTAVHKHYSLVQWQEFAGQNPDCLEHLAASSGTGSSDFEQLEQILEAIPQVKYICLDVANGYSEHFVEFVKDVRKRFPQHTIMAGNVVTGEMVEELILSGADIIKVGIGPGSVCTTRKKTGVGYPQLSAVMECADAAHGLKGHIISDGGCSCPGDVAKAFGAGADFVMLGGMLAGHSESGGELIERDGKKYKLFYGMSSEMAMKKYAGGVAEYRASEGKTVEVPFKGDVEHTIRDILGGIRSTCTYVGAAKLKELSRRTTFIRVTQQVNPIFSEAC
UniProt B7ZAQ6: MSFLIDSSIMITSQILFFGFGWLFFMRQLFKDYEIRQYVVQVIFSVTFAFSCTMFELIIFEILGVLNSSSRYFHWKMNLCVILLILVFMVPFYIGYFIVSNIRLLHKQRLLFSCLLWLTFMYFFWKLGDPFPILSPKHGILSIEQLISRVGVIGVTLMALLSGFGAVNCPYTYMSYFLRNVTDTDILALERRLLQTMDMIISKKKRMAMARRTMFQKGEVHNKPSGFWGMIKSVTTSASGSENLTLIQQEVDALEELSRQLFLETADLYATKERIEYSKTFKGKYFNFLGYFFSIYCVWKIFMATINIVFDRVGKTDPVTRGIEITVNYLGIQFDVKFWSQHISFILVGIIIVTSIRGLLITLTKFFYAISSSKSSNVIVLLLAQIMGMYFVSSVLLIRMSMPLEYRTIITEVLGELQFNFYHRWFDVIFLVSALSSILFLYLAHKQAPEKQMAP
UniProt Q9UBQ7: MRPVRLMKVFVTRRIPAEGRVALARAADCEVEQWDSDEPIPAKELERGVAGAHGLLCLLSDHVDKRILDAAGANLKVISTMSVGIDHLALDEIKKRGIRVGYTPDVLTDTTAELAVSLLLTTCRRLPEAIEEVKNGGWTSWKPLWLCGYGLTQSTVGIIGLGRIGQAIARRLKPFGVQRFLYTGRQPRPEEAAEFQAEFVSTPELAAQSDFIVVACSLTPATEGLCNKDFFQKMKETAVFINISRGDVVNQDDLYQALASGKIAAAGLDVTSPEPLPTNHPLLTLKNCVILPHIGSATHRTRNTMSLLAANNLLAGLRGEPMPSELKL
UniProt Q9BQ67, whole entry, looked up: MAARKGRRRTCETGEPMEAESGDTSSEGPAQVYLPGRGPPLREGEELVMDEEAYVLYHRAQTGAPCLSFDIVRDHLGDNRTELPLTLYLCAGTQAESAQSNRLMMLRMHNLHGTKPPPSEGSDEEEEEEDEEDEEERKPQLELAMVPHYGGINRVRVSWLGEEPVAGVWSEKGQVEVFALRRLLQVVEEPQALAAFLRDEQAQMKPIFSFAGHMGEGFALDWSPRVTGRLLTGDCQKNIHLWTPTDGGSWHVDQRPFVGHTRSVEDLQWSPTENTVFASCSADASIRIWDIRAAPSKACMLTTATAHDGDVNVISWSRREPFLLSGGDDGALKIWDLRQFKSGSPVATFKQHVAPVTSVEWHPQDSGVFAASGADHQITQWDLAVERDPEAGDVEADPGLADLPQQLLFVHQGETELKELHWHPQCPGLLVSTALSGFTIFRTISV
UniProt Q92990: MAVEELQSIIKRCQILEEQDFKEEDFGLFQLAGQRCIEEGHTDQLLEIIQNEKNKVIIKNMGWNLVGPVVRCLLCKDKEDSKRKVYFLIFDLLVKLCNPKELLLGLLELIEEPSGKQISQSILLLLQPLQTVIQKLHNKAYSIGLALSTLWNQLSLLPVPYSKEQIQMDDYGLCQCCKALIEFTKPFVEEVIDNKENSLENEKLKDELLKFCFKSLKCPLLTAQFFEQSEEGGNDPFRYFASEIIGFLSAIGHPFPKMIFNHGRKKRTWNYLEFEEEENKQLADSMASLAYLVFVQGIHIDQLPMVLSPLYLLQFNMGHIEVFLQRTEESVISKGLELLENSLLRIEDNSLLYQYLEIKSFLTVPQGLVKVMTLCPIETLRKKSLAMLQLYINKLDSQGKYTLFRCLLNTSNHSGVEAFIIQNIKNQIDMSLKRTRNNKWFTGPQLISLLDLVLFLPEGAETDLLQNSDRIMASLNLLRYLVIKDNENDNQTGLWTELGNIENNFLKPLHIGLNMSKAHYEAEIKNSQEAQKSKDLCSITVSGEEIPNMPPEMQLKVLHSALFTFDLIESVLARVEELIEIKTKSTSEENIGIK
UniProt P62993, whole entry, looked up: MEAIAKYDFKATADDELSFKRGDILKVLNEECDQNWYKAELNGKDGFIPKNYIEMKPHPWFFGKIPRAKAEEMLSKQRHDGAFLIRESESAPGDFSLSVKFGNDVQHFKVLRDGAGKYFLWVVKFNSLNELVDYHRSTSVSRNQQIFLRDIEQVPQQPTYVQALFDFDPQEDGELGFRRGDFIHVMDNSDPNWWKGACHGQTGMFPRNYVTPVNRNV
UniProt P25098: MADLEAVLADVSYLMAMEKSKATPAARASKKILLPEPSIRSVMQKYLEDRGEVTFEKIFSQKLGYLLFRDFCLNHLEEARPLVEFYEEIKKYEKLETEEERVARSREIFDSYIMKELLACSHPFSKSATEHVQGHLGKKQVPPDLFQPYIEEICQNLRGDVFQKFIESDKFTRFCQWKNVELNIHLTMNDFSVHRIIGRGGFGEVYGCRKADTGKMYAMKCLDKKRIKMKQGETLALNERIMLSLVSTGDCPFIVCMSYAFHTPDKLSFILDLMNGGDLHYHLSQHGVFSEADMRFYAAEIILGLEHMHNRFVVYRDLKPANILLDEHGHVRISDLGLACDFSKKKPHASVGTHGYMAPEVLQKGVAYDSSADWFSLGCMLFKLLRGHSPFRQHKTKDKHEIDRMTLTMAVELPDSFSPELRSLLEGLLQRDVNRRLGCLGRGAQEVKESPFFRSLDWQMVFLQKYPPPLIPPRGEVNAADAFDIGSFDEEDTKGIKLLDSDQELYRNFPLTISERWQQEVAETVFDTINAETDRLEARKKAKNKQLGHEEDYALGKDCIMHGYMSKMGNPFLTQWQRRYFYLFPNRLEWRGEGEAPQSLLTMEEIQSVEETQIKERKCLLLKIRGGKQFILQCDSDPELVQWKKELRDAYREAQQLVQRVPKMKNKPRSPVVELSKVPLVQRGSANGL
UniProt Q08378: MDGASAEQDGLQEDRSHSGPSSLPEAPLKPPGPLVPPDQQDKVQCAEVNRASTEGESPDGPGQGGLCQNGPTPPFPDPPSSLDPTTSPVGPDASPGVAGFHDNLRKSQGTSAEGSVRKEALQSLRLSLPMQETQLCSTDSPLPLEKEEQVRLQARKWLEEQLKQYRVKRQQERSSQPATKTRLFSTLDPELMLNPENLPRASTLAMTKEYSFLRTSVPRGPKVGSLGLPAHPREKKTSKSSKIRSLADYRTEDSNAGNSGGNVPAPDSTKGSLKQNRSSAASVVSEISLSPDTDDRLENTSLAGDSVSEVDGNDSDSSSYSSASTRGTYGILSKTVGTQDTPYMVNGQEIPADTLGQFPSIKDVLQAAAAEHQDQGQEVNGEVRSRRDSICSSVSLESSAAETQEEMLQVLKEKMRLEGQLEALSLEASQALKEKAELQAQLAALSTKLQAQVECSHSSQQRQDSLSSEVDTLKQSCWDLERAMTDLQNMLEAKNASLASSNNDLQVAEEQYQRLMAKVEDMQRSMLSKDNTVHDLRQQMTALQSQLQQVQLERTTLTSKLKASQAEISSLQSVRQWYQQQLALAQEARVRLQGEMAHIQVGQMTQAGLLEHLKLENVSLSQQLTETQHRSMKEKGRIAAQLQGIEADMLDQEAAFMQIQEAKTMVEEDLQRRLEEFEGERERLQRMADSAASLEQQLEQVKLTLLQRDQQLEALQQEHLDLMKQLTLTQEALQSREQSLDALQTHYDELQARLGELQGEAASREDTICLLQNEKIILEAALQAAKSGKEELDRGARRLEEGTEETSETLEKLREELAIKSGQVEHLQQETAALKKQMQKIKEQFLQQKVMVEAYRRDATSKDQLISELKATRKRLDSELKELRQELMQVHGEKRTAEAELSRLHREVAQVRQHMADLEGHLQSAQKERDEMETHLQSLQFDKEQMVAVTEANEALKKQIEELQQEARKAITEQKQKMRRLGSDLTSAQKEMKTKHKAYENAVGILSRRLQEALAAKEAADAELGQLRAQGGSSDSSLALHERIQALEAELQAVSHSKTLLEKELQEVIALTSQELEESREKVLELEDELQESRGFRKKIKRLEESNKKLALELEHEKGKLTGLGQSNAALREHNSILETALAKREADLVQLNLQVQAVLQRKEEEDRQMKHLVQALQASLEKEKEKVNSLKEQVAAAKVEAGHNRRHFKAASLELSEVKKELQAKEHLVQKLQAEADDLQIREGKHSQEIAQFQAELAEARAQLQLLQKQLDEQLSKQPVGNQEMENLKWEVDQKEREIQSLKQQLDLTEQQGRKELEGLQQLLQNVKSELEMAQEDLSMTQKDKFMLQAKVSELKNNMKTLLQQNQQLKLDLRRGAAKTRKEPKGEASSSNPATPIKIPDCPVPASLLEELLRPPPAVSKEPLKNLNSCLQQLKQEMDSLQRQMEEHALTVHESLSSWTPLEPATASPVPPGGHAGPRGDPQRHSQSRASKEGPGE
UniProt Q9NWU2, whole entry, looked up: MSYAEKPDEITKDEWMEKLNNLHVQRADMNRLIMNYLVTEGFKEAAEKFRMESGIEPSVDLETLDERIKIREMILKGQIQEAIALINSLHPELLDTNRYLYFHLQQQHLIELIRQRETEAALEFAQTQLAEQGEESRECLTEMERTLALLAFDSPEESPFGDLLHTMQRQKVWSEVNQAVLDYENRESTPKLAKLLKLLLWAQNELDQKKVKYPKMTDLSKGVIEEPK
UniProt O75791: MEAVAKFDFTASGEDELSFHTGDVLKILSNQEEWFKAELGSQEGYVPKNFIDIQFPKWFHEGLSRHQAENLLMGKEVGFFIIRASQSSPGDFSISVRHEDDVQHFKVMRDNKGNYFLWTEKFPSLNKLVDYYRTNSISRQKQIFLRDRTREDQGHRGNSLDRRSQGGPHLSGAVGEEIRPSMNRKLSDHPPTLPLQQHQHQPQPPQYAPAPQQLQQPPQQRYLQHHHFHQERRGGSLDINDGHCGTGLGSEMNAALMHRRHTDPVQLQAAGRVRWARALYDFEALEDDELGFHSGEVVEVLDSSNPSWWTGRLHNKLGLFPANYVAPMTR

sotrastaurin = compound: CN1CCN(c2nc(C3=C(c4c[nH]c5ccccc45)C(=O)NC3=O)c3ccccc3n2)CC1 [sotrastaurin]
Summary of the method: as §1

alvocidib = compound: CN1CC[C@H](c2c(O)cc(O)c3c(=O)cc(-c4ccccc4Cl)oc23)[C@H](O)C1 [alvocidib]
Summary of the method: as §1

Tubastatin A = compound: CN1CCc2c(c3ccccc3n2Cc2ccc(C(=O)NO)cc2)C1 [Tubastatin A]
Summary of the method: as §1

[1] = compound: CNC(=O)C1=CC=CC=C1NC2=NC(=NC=C2Cl)NC3=C(C=C(C=C3)N4CCOCC4)OC
Summary of the method: as §1

defactinib = compound: CNC(=O)c1ccc(Nc2ncc(C(F)(F)F)c(NCc3nccnc3N(C)S(C)(=O)=O)n2)cc1 [defactinib]
Summary of the method: as §1

rucaparib = compound: CNCc1ccc(-c2[nH]c3cc(F)cc4c3c2CCNC4=O)cc1 [rucaparib]
Summary of the method: as §1

[2] = compound: CNc1nc(-c2ccc3c(N)n[nH]c3c2)cc(N2C[C@@H](C(=O)NC3CCCCC3)CC[C@H]2C)n1
Summary of the method: as §1

encorafenib = compound: COC(=O)N[C@@H](C)CNc1nccc(-c2cn(C(C)C)nc2-c2cc(Cl)cc(NS(C)(=O)=O)c2F)n1 [encorafenib]
Summary of the method: as §1

[3] = compound: COC(=O)[C@H](CCSC)NC(=O)C1=C(C=C(C=C1)NC[C@H](CS)N)C2=CC=CC=C2
Summary of the method: as §1

Measured: log2 fold change

GMFG (UniProt O60234)
inactive: saracatinib 0.043 | sotrastaurin -0.017 | alvocidib -0.043 | Tubastatin A 0.016 | [1] 0.024 | defactinib -0.042 | rucaparib 0.054 | [2] -0.053 | encorafenib 0.026 | [3] -0.03

GOLIM4 (UniProt O00461)
inactive: saracatinib -0.041 | sotrastaurin 0.021 | alvocidib -0.01 | Tubastatin A 0.014 | [1] 0.095 | defactinib 0.009 | rucaparib 0.051 | [2] 0.011 | encorafenib 0.012 | [3] -0.015

GNPTAB (UniProt Q3T906)
inactive: saracatinib 0.031 | sotrastaurin 0.022 | alvocidib 0.075 | Tubastatin A -0.024 | [1] -0.058 | defactinib 0.024 | rucaparib -0.099 | [2] 0.036 | encorafenib -0.023 | [3] 0.06

GNAQ (UniProt P50148)
inactive: saracatinib -0.057 | sotrastaurin -0.027 | alvocidib -0.026 | Tubastatin A 0.027 | [1] -0.04 | defactinib 0.018 | rucaparib 0.003 | [2] 0.034 | encorafenib -0.026 | [3] 0.016

GPN1 isoform 5 (UniProt Q9HCN4)
inactive: saracatinib -0.001 | sotrastaurin -0.021 | alvocidib -0.066 | Tubastatin A 0.046 | [1] -0.059 | defactinib -0.046 | rucaparib 0.007 | [2] 0.009 | encorafenib 0.012 | [3] 0.061

GINS1 (UniProt Q14691)
inactive: saracatinib 0.046 | sotrastaurin 0.063 | alvocidib -0.047 | Tubastatin A -0.02 | [1] -0.044 | defactinib -0.057 | rucaparib 0.013 | [2] 0.038 | encorafenib 0.019 | [3] -0.021

GNA11 (UniProt P29992)
inactive: saracatinib 0.001 | sotrastaurin 0 | alvocidib -0.082 | Tubastatin A 0.05 | [1] 0.025 | defactinib -0.031 | rucaparib 0.007 | [2] 0.052 | encorafenib -0.04 | [3] -0.023

GMFB (UniProt P60983)
inactive: saracatinib 0.035 | sotrastaurin 0.003 | alvocidib -0.019 | Tubastatin A -0.039 | [1] -0.005 | defactinib -0.034 | rucaparib -0.045 | [2] -0.001 | encorafenib 0.013 | [3] -0.016

GMPR2 isoform 2 (UniProt Q9P2T1)
inactive: saracatinib 0.057 | sotrastaurin 0.039 | alvocidib -0.035 | Tubastatin A -0.053 | [1] -0.045 | defactinib -0.026 | rucaparib -0.028 | [2] -0.05 | encorafenib -0.031 | [3] -0.019

Copied from the entries so far (6 entries):
GOLIM4 (UniProt O00461)
inactive: saracatinib -0.041 | sotrastaurin 0.021 | alvocidib -0.01 | Tubastatin A 0.014 | [1] 0.095 | defactinib 0.009 | rucaparib 0.051 | [2] 0.011 | encorafenib 0.012 | [3] -0.015

GNPTAB (UniProt Q3T906)
inactive: saracatinib 0.031 | sotrastaurin 0.022 | alvocidib 0.075 | Tubastatin A -0.024 | [1] -0.058 | defactinib 0.024 | rucaparib -0.099 | [2] 0.036 | encorafenib -0.023 | [3] 0.06

GNAQ (UniProt P50148)
inactive: saracatinib -0.057 | sotrastaurin -0.027 | alvocidib -0.026 | Tubastatin A 0.027 | [1] -0.04 | defactinib 0.018 | rucaparib 0.003 | [2] 0.034 | encorafenib -0.026 | [3] 0.016

GPN1 isoform 5 (UniProt Q9HCN4)
inactive: saracatinib -0.001 | sotrastaurin -0.021 | alvocidib -0.066 | Tubastatin A 0.046 | [1] -0.059 | defactinib -0.046 | rucaparib 0.007 | [2] 0.009 | encorafenib 0.012 | [3] 0.061

GINS1 (UniProt Q14691)
inactive: saracatinib 0.046 | sotrastaurin 0.063 | alvocidib -0.047 | Tubastatin A -0.02 | [1] -0.044 | defactinib -0.057 | rucaparib 0.013 | [2] 0.038 | encorafenib 0.019 | [3] -0.021

GNA11 (UniProt P29992)
inactive: saracatinib 0.001 | sotrastaurin 0 | alvocidib -0.082 | Tubastatin A 0.05 | [1] 0.025 | defactinib -0.031 | rucaparib 0.007 | [2] 0.052 | encorafenib -0.04 | [3] -0.023

Remaining list, next part

GP1BB isoform 2 (UniProt P13224)
inactive: saracatinib 0.002 | sotrastaurin 0 | alvocidib 0.056 | Tubastatin A 0.024 | [1] 0.019 | defactinib -0.025 | rucaparib -0.016 | [2] -0.005 | encorafenib -0.024 | [3] -0.001

GPR89A (UniProt B7ZAQ6)
inactive: saracatinib 0.069 | sotrastaurin -0.035 | alvocidib 0.009 | Tubastatin A -0.036 | [1] 0.012 | defactinib -0.029 | rucaparib -0.016 | [2] -0.009 | encorafenib 0.087 | [3] -0.083

GRHPR (UniProt Q9UBQ7)
inactive: saracatinib 0.03 | sotrastaurin 0.046 | alvocidib -0.059 | Tubastatin A 0.004 | [1] -0.028 | defactinib -0.049 | rucaparib -0.019 | [2] -0.021 | encorafenib -0.05 | [3] -0.048

GOLGA2 (UniProt Q08379)
inactive: saracatinib -0.091 | sotrastaurin -0.173 | alvocidib 0.066 | Tubastatin A 0.042 | [1] 0.037 | defactinib 0.002 | rucaparib 0.17 | [2] 0.031 | encorafenib 0.133 | [3] -0.003

GIPC1 (UniProt O14908)
inactive: saracatinib -0.033 | sotrastaurin -0.009 | alvocidib -0.058 | Tubastatin A -0.035 | [1] 0.018 | defactinib -0.114 | rucaparib 0.056 | [2] -0.013 | encorafenib -0.044 | [3] -0.122

GPAA1 (UniProt O43292)
inactive: saracatinib -0.051 | sotrastaurin -0.021 | alvocidib -0.064 | Tubastatin A -0.01 | [1] -0.01 | defactinib -0.035 | rucaparib -0.06 | [2] -0.009 | encorafenib 0.048 | [3] -0.025

GRWD1 (UniProt Q9BQ67)
inactive: saracatinib -0.155 | sotrastaurin -0.039 | alvocidib 0.19 | Tubastatin A 0.09 | [1] -0.018 | defactinib 0.131 | rucaparib 0.283 | [2] 0.136 | encorafenib 0.109 | [3] -0.012

GLMN (UniProt Q92990)
inactive: saracatinib 0.032 | sotrastaurin 0.034 | alvocidib -0.011 | Tubastatin A -0.03 | [1] 0 | defactinib -0.024 | rucaparib 0.006 | [2] -0.002 | encorafenib 0.006 | [3] 0.06

GPD1L (UniProt Q8N335)
inactive: saracatinib -0.037 | sotrastaurin 0.029 | alvocidib -0.052 | Tubastatin A -0.034 | [1] -0.025 | defactinib -0.033 | rucaparib -0.043 | [2] -0.002 | encorafenib 0.002 | [3] -0.008

GRB2 (UniProt P62993)
inactive: saracatinib 0.04 | sotrastaurin -0.083 | alvocidib -0.035 | Tubastatin A -0.033 | [1] 0 | defactinib -0.002 | rucaparib -0.146 | [2] -0.026 | encorafenib 0.042 | [3] 0.054

GOLGA4 isoform 5 (UniProt Q13439)
inactive: saracatinib -0.147 | sotrastaurin -0.013 | alvocidib 0.114 | Tubastatin A 0.069 | [1] -0.052 | defactinib 0.051 | rucaparib 0.092 | [2] -0.014 | encorafenib 0.04 | [3] -0.012

GRK2 (UniProt P25098)
inactive: saracatinib 0.007 | sotrastaurin -0.022 | alvocidib -0.043 | Tubastatin A -0.008 | [1] -0.056 | defactinib -0.051 | rucaparib 0 | [2] -0.007 | encorafenib 0.012 | [3] 0.016

GNAI2 isoform 4 (UniProt P04899)
inactive: saracatinib -0.046 | sotrastaurin 0.026 | alvocidib 0.025 | Tubastatin A -0.034 | [1] 0.052 | defactinib -0.006 | rucaparib 0.079 | [2] 0.049 | encorafenib 0.008 | [3] -0.098

GPALPP1 (UniProt Q8IXQ4)
inactive: saracatinib 0.004 | sotrastaurin 0.004 | alvocidib 0.032 | Tubastatin A 0.015 | [1] -0.062 | defactinib 0.084 | rucaparib -0.007 | [2] -0.026 | encorafenib -0.033 | [3] 0.067

GNB4 (UniProt Q9HAV0)
inactive: saracatinib 0.048 | sotrastaurin -0.044 | alvocidib 0.082 | Tubastatin A 0.055 | [1] 0.03 | defactinib 0.038 | rucaparib -0.048 | [2] -0.031 | encorafenib -0.043 | [3] -0.028

GMPS (UniProt P49915)
inactive: saracatinib -0.013 | sotrastaurin 0.015 | alvocidib -0.079 | Tubastatin A -0.009 | [1] -0.004 | defactinib -0.006 | rucaparib -0.028 | [2] 0.026 | encorafenib 0.019 | [3] 0.002

GOLGA3 (UniProt Q08378)
inactive: saracatinib 0.001 | sotrastaurin -0.026 | alvocidib -0.05 | Tubastatin A -0.018 | [1] 0.028 | defactinib -0.021 | rucaparib 0.012 | [2] -0.052 | encorafenib -0.029 | [3] -0.011

GID8 (UniProt Q9NWU2)
inactive: saracatinib 0.02 | sotrastaurin -0.006 | alvocidib -0.061 | Tubastatin A -0.007 | [1] -0.007 | defactinib -0.087 | rucaparib 0.035 | [2] 0.045 | encorafenib 0.025 | [3] -0.015

GRAP2 (UniProt O75791)
inactive: saracatinib -0.097 | sotrastaurin -0.141 | alvocidib -0.083 | Tubastatin A 0.109 | [1] 0.083 | defactinib -0.149 | rucaparib 0.085 | [2] 0.046 | encorafenib 0.097 | [3] -0.045

GOLT1B (UniProt Q9Y3E0)
inactive: saracatinib 0.076 | sotrastaurin 0.064 | alvocidib 0.001 | Tubastatin A -0.084 | [1] 0.002 | defactinib -0.045 | rucaparib -0.076 | [2] -0.012 | encorafenib -0.001 | [3] 0.027
